According to paper PMC3936002:
Results are given in words; binding and its absence hold for the method and conditions named. Binding seen in cells or lysates may run through a third protein. Some entries that bind do so weakly or less than the wild type.

Chains of the proteins cited; added tags and fusions are not shown.
UniProt O95155: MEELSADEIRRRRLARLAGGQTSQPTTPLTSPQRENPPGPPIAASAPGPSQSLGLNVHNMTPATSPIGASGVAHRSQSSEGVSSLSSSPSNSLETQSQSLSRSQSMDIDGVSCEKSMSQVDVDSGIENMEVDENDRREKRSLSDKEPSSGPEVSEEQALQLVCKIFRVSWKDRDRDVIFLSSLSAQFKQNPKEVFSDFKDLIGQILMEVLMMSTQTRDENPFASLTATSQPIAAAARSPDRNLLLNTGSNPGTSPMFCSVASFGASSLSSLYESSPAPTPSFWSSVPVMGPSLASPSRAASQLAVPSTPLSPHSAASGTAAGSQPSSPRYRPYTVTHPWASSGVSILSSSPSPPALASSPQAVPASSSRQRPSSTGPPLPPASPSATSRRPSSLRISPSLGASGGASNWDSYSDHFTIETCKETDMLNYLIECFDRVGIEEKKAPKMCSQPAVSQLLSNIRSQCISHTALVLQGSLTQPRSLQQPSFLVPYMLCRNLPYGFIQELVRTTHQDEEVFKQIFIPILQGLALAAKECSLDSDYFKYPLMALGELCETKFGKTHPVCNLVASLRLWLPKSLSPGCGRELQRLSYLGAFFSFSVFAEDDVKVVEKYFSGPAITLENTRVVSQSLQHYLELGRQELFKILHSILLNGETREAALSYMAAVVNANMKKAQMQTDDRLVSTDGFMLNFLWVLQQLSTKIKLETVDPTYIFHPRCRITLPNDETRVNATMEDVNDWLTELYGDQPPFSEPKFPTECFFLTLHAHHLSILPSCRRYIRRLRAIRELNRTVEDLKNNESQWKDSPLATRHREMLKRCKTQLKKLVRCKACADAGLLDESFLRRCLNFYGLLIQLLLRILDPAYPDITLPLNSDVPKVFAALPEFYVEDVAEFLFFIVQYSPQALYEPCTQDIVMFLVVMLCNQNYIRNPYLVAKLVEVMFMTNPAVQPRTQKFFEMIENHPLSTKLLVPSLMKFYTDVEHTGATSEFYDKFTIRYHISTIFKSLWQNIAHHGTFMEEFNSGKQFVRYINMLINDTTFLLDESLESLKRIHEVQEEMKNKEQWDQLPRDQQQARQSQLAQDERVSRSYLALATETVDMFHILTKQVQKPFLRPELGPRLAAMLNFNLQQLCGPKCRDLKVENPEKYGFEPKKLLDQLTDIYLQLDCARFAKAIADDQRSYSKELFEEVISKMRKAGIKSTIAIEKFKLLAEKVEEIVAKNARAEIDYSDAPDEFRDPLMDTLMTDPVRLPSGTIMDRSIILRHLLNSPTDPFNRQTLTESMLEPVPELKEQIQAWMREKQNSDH
UniProt Q00987: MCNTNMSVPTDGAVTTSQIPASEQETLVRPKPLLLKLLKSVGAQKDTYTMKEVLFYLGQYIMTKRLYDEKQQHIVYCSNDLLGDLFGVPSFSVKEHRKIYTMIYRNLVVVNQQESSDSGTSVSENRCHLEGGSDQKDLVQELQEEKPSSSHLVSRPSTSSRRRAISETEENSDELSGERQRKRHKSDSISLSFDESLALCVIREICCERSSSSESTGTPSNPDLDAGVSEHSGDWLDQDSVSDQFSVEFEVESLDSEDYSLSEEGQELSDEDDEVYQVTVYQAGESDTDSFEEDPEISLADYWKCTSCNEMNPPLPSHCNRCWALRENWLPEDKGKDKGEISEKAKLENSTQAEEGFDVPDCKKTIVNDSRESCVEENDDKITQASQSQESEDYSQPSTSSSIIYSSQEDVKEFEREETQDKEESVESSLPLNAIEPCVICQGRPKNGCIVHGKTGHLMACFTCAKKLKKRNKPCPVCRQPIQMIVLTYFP

Molecular target: UBE4B (human (endogenous in MCF-7)) (UniProt O95155)
Test: co-IP; MCF-7 cell lysates in HEPES buffer (50 mM HEPES pH 7.2, 250 mM NaCl, 10% glycerol, 1% NP-40, 1.0 mM EDTA, 0.5 mM DTT); incubated 8 h at 4°C on agarose with anti-UBE4B, anti-p53, anti-Hdm2 or IgG control antibodies; western blot; done in both directions

In the case of Hdm2 (from UniProt Q00987 1-491), the binding is reported as “binds”.
